What all share (assay type): cell-based
Holding throughout (conditions): selectivity index

One data set deals with HT-29. Kind of data set: WST-1 cytotoxicity assay, HT-29. Here is the method:
(§1) We used cancer and normal cell lines purchased from ATCC (American Type Culture Collection) and ECACC (European Collection of Authenticated Cell Cultures) and stored in liquid nitrogen.
(§2) The cells were planted in 96 well plates (10^4 cells per well). […] WST-1 reactive of 10 µL was added in all wells. Following 4 h incubation, the measurements were carried out in a plate reader (Spectramax M5, BioTek, VT, USA) at wavelengths of 450 and 630 nm.
In general terms: Tetrazolium assays rely on reduction of a dye to a coloured formazan, in cell work by metabolically active cells.

The subject of a further data set is MDA-MB-231. Kind of data set: WST-1 cytotoxicity assay, MDA-MB-231. As for the experimental part: as §1, §2
The test system of the next data set is HeLa cells. The data set can be described thus: WST-1 cytotoxicity assay, HeLa. Here is the method: as §1, §2

Each structure is given as a SMILES string.

As for `O=c1[nH]cc(F)c(=O)[nH]1` [5-FU, 5-Fluorouracil], the “SI HEK-293/HT-29” value is reported as 0.9 µM with HT-29 (24 h) and 0.7 µM in the data set on HT-29 (72 h). For the same compound, the results for the “SI HEK-293/MDA-MB-231” value in the data set on MDA-MB-231 (24 h), with MDA-MB-231 (48 h) and with MDA-MB-231 (72 h) were 1.0 µM, 0.5 µM and 0.6 µM, respectively. The “SI HEK-293/HELA” value in the data set with HeLa cells (24 h) is given as above 1.1 µM; with HeLa cells (48 h), 0.6 µM; with HeLa cells (72 h), 0.9 µM.
